Reference: paper PMC4226561
Results are given in words; binding and its absence hold for the method and conditions named. For some of these results: In cells and extracts the contact can be indirect. Some binding calls cover weakened binding; strength is not graded here. Sequences can lack the tags named with a protein.

Experiments:
[1] = target: T1, KOR1C, transmembrane domain plus the C-terminal part of KOR1 (AA 70 to 621), MbYTH fusion (Arabidopsis thaliana) (UniProt Q38890); experiment: two-hybrid; split-ubiquitin membrane-based yeast two-hybrid (MbYTH) in S. cerevisiae NMY51; bait fused to Cub-TF, prey to NubG; 100 colonies of each combination spotted on selective medium with 3-AT, 30°C, three days, grown spots counted; called 'in vitro' by the paper
T1 sequence: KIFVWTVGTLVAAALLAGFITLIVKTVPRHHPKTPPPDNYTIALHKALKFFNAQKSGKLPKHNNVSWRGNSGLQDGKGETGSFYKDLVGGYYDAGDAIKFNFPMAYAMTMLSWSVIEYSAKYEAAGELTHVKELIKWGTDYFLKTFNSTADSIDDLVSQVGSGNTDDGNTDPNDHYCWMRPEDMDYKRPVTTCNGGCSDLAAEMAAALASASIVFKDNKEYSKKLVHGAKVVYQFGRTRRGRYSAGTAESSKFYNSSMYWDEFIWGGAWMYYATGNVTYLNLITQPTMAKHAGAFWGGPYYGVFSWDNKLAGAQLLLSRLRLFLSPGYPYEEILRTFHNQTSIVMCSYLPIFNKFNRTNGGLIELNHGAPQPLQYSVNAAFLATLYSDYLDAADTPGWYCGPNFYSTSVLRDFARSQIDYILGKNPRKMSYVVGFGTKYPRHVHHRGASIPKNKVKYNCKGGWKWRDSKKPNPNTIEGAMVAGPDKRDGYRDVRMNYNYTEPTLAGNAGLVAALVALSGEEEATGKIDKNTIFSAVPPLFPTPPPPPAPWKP

[2] = target: T2, KOR1N, N-terminal part of KOR1 with the transmembrane domain (AA 1 to 94), MbYTH fusion (Arabidopsis thaliana) (UniProt Q38890); experiment: as above
T2 sequence: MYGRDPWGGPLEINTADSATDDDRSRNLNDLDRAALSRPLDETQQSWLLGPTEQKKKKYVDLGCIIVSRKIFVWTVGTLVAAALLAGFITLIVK

[3] = target: T3, KOR1TMD, only the transmembrane domain of KOR1 (AA 70 to 94), MbYTH fusion (Arabidopsis thaliana) (UniProt Q38890); experiment: as above
T3 sequence: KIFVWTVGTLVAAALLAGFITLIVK

[4] = target: T4, KORRIGAN1 (KOR1), complete protein (AA 1 to 621), MbYTH fusion (Arabidopsis thaliana) (UniProt Q38890); experiment: as above
T4 sequence: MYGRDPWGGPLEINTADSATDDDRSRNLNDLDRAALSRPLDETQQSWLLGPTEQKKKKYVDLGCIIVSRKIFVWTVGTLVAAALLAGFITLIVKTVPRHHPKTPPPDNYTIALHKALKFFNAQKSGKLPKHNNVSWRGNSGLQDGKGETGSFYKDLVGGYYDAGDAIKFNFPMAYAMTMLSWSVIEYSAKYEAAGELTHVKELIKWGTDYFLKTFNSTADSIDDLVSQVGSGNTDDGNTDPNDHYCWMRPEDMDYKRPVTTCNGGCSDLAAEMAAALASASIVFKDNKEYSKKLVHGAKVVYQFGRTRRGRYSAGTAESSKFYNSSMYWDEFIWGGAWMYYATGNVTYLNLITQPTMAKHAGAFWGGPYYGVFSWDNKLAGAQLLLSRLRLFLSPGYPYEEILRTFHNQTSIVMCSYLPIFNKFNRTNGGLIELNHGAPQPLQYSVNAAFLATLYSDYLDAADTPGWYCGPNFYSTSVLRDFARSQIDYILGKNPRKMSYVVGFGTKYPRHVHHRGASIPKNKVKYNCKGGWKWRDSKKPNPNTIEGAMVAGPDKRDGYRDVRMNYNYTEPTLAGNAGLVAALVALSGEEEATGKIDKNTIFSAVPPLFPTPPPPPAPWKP

[5] = target: T5, CESA6 (cellulose synthase, primary cell wall), MbYTH fusion (Arabidopsis thaliana), Q94JQ6; experiment: as above; settings: remark: other sources report otherwise
T5 chain: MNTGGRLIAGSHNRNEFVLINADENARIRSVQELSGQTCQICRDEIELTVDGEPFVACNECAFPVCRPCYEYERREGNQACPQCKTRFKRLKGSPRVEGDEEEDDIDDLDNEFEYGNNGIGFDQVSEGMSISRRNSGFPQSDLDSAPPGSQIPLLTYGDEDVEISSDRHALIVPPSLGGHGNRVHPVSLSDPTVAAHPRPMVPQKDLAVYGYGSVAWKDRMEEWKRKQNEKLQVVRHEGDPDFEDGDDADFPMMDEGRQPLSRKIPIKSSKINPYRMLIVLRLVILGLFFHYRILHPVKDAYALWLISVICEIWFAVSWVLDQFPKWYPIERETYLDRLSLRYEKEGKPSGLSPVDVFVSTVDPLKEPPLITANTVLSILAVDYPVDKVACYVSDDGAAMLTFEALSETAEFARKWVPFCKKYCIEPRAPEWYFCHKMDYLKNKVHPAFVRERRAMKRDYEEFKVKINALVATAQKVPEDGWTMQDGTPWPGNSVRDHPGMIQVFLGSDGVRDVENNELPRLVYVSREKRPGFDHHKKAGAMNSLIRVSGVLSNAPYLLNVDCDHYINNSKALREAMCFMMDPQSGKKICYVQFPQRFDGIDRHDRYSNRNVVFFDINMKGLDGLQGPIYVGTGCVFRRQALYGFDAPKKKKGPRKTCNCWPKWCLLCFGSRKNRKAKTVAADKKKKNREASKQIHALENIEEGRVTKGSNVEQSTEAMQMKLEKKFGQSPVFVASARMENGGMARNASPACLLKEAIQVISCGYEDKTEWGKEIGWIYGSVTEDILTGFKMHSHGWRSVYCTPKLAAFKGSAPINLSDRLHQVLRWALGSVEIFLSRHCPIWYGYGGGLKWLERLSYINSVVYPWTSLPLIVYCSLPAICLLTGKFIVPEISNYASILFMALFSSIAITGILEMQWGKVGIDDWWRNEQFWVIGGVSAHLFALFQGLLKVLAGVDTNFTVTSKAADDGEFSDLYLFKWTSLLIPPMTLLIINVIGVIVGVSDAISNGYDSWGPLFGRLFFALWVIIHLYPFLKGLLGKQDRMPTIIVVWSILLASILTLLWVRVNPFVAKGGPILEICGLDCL

[6] = target: aquaporin PIP2-1, split-YFP (BiFC) fusion, positive control (UniProt P43286); experiment: split reporter; BiFC: Y/N and Y/C fragments of YFP each linked to the N-terminus of the proteins, transiently expressed in leaves of 3-week-old N. benthamiana; YFP fluorescence by confocal microscopy 3 days after infiltration

B1: CESA8 (cellulose synthase, secondary cell wall), MbYTH fusion (protein, UniProt Q8LPK5 1-985)
chain: MMESRSPICNTCGEEIGVKSNGEFFVACHECSFPICKACLEYEFKEGRRICLRCGNPYDENVFDDVETKTSKTQSIVPTQTNNTSQDSGIHARHISTVSTIDSELNDEYGNPIWKNRVESWKDKKDKKSKKKKKDPKATKAEQHEAQIPTQQHMEDTPPNTESGATDVLSVVIPIPRTKITSYRIVIIMRLIILALFFNYRITHPVDSAYGLWLTSVICEIWFAVSWVLDQFPKWSPINRETYIDRLSARFEREGEQSQLAAVDFFVSTVDPLKEPPLITANTVLSILALDYPVDKVSCYVSDDGAAMLSFESLVETADFARKWVPFCKKYSIEPRAPEFYFSLKIDYLRDKVQPSFVKERRAMKRDYEEFKIRMNALVAKAQKTPEEGWTMQDGTSWPGNNTRDHPGMIQVFLGYSGARDIEGNELPRLVYVSREKRPGYQHHKKAGAENALVRVSAVLTNAPFILNLDCDHYVNNSKAVREAMCFLMDPVVGQDVCFVQFPQRFDGIDKSDRYANRNIVFFDVNMRGLDGIQGPVYVGTGTVFRRQALYGYSPPSKPRILPQSSSSSCCCLTKKKQPQDPSEIYKDAKREELDAAIFNLGDLDNYDEYDRSMLISQTSFEKTFGLSTVFIESTLMENGGVPDSVNPSTLIKEAIHVISCGYEEKTEWGKEIGWIYGSITEDILTGFKMHCRGWRSIYCMPLRPAFKGSAPINLSDRLHQVLRWALGSVEIFLSRHCPLWYGCSGGRLKLLQRLAYINTIVYPFTSLPLVAYCTLPAICLLTGKFIIPTLSNLASMLFLGLFISIILTSVLELRWSGVSIEDLWRNEQFWVIGGVSAHLFAVFQGFLKMLAGLDTNFTVTSKTADDLEFGELYIVKWTTLLIPPTSLLIINLVGVVAGFSDALNKGYEAWGPLFGKVFFAFWVILHLYPFLKGLMGRQNRTPTIVILWSILLASVFSLVWVRINPFVSKTDTTSLSLNCLLIDC
**Q.** For B1, which binding [1] is on record?
**A.** Its binding is “binds”.

**Q.** And the binding [2]?
**A.** Its binding is “binds”.

**Q.** And the binding [3]?
**A.** Its binding is “binds”.

**Q.** And the binding [4]?
**A.** The binding was “binds”.

B2: KORRIGAN1 (KOR1), complete protein (AA 1 to 621), MbYTH fusion, Q38890 1-621 (protein)
chain: MYGRDPWGGPLEINTADSATDDDRSRNLNDLDRAALSRPLDETQQSWLLGPTEQKKKKYVDLGCIIVSRKIFVWTVGTLVAAALLAGFITLIVKTVPRHHPKTPPPDNYTIALHKALKFFNAQKSGKLPKHNNVSWRGNSGLQDGKGETGSFYKDLVGGYYDAGDAIKFNFPMAYAMTMLSWSVIEYSAKYEAAGELTHVKELIKWGTDYFLKTFNSTADSIDDLVSQVGSGNTDDGNTDPNDHYCWMRPEDMDYKRPVTTCNGGCSDLAAEMAAALASASIVFKDNKEYSKKLVHGAKVVYQFGRTRRGRYSAGTAESSKFYNSSMYWDEFIWGGAWMYYATGNVTYLNLITQPTMAKHAGAFWGGPYYGVFSWDNKLAGAQLLLSRLRLFLSPGYPYEEILRTFHNQTSIVMCSYLPIFNKFNRTNGGLIELNHGAPQPLQYSVNAAFLATLYSDYLDAADTPGWYCGPNFYSTSVLRDFARSQIDYILGKNPRKMSYVVGFGTKYPRHVHHRGASIPKNKVKYNCKGGWKWRDSKKPNPNTIEGAMVAGPDKRDGYRDVRMNYNYTEPTLAGNAGLVAALVALSGEEEATGKIDKNTIFSAVPPLFPTPPPPPAPWKP
**Q.** Which binding [5] does the source give for B2 here?
**A.** The binding was “binds”.

B3: aquaporin PIP2-1, split-YFP (BiFC) fusion, positive control (protein, UniProt P43286 1-287)
chain: MAKDVEAVPGEGFQTRDYQDPPPAPFIDGAELKKWSFYRAVIAEFVATLLFLYITVLTVIGYKIQSDTDAGGVDCGGVGILGIAWAFGGMIFILVYCTAGISGGHINPAVTFGLFLARKVSLPRALLYIIAQCLGAICGVGFVKAFQSSYYTRYGGGANSLADGYSTGTGLAAEIIGTFVLVYTVFSATDPKRSARDSHVPVLAPLPIGFAVFMVHLATIPITGTGINPARSFGAAVIYNKSKPWDDHWIFWVGPFIGAAIAAFYHQFVLRASGSKSLGSFRSAANV
**Q.** Which binding [6] does the source give for B3 here?
**A.** The binding was “binds”.

B4: CESA7 (cellulose synthase, secondary cell wall), MbYTH fusion (protein, UniProt Q9SWW6 1-1026)
chain: MEASAGLVAGSHNRNELVVIHNHEEPKPLKNLDGQFCEICGDQIGLTVEGDLFVACNECGFPACRPCYEYERREGTQNCPQCKTRYKRLRGSPRVEGDEDEEDIDDIEYEFNIEHEQDKHKHSAEAMLYGKMSYGRGPEDDENGRFPPVIAGGHSGEFPVGGGYGNGEHGLHKRVHPYPSSEAGSEGGWRERMDDWKLQHGNLGPEPDDDPEMGLIDEARQPLSRKVPIASSKINPYRMVIVARLVILAVFLRYRLLNPVHDALGLWLTSVICEIWFAVSWILDQFPKWFPIERETYLDRLSLRYEREGEPNMLAPVDVFVSTVDPLKEPPLVTSNTVLSILAMDYPVEKISCYVSDDGASMLTFESLSETAEFARKWVPFCKKFSIEPRAPEMYFTLKVDYLQDKVHPTFVKERRAMKREYEEFKVRINAQVAKASKVPLEGWIMQDGTPWPGNNTKDHPGMIQVFLGHSGGFDVEGHELPRLVYVSREKRPGFQHHKKAGAMNALVRVAGVLTNAPFMLNLDCDHYVNNSKAVREAMCFLMDPQIGKKVCYVQFPQRFDGIDTNDRYANRNTVFFDINMKGLDGIQGPVYVGTGCVFKRQALYGYEPPKGPKRPKMISCGCCPCFGRRRKNKKFSKNDMNGDVAALGGAEGDKEHLMSEMNFEKTFGQSSIFVTSTLMEEGGVPPSSSPAVLLKEAIHVISCGYEDKTEWGTELGWIYGSITEDILTGFKMHCRGWRSIYCMPKRPAFKGSAPINLSDRLNQVLRWALGSVEIFFSRHSPLWYGYKGGKLKWLERFAYANTTIYPFTSIPLLAYCILPAICLLTDKFIMPPISTFASLFFISLFMSIIVTGILELRWSGVSIEEWWRNEQFWVIGGISAHLFAVVQGLLKILAGIDTNFTVTSKATDDDDFGELYAFKWTTLLIPPTTVLIINIVGVVAGISDAINNGYQSWGPLFGKLFFSFWVIVHLYPFLKGLMGRQNRTPTIVVIWSVLLASIFSLLWVRIDPFVLKTKGPDTSKCGINC
**Q.** With B4 as the binder, how does the binding [1] read?
**A.** Its binding is “no binding”.

**Q.** And the binding [2]?
**A.** The binding was “no binding”.

**Q.** What about the binding [3] of the same binder?
**A.** The binding was “no binding”.

**Q.** And the binding [4]?
**A.** Its binding is “no binding”.
